{"source": "PubChem BioAssay AID1259308 (NCATS, 2017)", "aim": "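Knock-downs that increase output of a recombinant reporter protein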 (primary screen)", "cells": "human HEK293 embryonic kidney cells stably expressing firefly luciferase (HEK-CMV-Luc2-Hygro)", "reagents": "single siRNA against human genes, 0.8 pmol siRNA per well", "duration": "72 h", "measurement": "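Reporter luminescence and viable-cell signal on separate replicate plates, given as percent of non-targeting control and median/MAD z-scores, plus per-cell luciferase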", "reading the numbers": "total luciferase, z-score and total luciferase, % of control: higher = more reporter protein produced", "hit rule": "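An siRNA counts as active if its total luciferase robust z-score exceeds 3; genes with two or more such siRNAs out of three were retested with fresh siRNAs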", "calls": "active = raised luciferase; inactive = no rise", "note": "In all, the deposit lists about 59,000 reagents; this is a part drawn at random. About 1,510 of them (2.6%) count as active. 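Calls use total luciferase alone and ignore viability, so some active siRNAs may act by altering cell number.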 The numbers tell different reagents against one gene apart. Further read-outs or replicates are left out here."}
{"target gene": "FBLN5", "siRNA no.": 1, "total luciferase, z-score": 0.998, "total luciferase, % of control": 102, "call": "inactive"}
{"target gene": "FBLN5", "siRNA no.": 2, "total luciferase, z-score": -0.276, "total luciferase, % of control": 76.4, "call": "inactive"}
{"target gene": "FBLN5", "siRNA no.": 3, "total luciferase, z-score": -0.825, "total luciferase, % of control": 65.5, "call": "inactive"}
{"target gene": "AARS2", "siRNA no.": 1, "total luciferase, z-score": 0.0528, "total luciferase, % of control": 82.9, "call": "inactive"}
{"target gene": "AARS2", "siRNA no.": 2, "total luciferase, z-score": -0.0845, "total luciferase, % of control": 80.2, "call": "inactive"}
{"target gene": "AARS2", "siRNA no.": 3, "total luciferase, z-score": -0.965, "total luciferase, % of control": 62.7, "call": "inactive"}
{"target gene": "SLC17A5", "siRNA no.": 1, "total luciferase, z-score": 0.839, "total luciferase, % of control": 98.6, "call": "inactive"}
{"target gene": "SLC17A5", "siRNA no.": 2, "total luciferase, z-score": 1.18, "total luciferase, % of control": 105, "call": "inactive"}
{"target gene": "SLC17A5", "siRNA no.": 3, "total luciferase, z-score": 0.244, "total luciferase, % of control": 86.7, "call": "inactive"}
{"target gene": "HLA-DPA1", "siRNA no.": 1, "total luciferase, z-score": -0.559, "total luciferase, % of control": 70.8, "call": "inactive"}
{"target gene": "HLA-DPA1", "siRNA no.": 2, "total luciferase, z-score": 1.6, "total luciferase, % of control": 114, "call": "inactive"}
{"target gene": "HLA-DPA1", "siRNA no.": 3, "total luciferase, z-score": -0.663, "total luciferase, % of control": 68.7, "call": "inactive"}
{"target gene": "FBXW7", "siRNA no.": 1, "total luciferase, z-score": -2.31, "total luciferase, % of control": 35.9, "call": "inactive"}
{"target gene": "FBXW7", "siRNA no.": 2, "total luciferase, z-score": 0.338, "total luciferase, % of control": 88.6, "call": "inactive"}
{"target gene": "FBXW7", "siRNA no.": 3, "total luciferase, z-score": -0.159, "total luciferase, % of control": 78.7, "call": "inactive"}
{"target gene": "OSTN", "siRNA no.": 1, "total luciferase, z-score": -0.347, "total luciferase, % of control": 75, "call": "inactive"}
{"target gene": "OSTN", "siRNA no.": 2, "total luciferase, z-score": -0.187, "total luciferase, % of control": 78.2, "call": "inactive"}
{"target gene": "OSTN", "siRNA no.": 3, "total luciferase, z-score": 0.478, "total luciferase, % of control": 91.4, "call": "inactive"}
{"target gene": "PCYT1A", "siRNA no.": 1, "total luciferase, z-score": 0.876, "total luciferase, % of control": 99.3, "call": "inactive"}
{"target gene": "PCYT1A", "siRNA no.": 2, "total luciferase, z-score": 0.73, "total luciferase, % of control": 96.4, "call": "inactive"}
{"target gene": "PCYT1A", "siRNA no.": 3, "total luciferase, z-score": -0.798, "total luciferase, % of control": 66, "call": "inactive"}
